The supplement of paper PMC10849652
Some of the results follow.

By UniProt entry, the sequences of proteins in these tests, tags left out. Where a name states a change or a piece, a line headed by the entry shows the natural chain unless it says otherwise.
UniProt Q9UGH3: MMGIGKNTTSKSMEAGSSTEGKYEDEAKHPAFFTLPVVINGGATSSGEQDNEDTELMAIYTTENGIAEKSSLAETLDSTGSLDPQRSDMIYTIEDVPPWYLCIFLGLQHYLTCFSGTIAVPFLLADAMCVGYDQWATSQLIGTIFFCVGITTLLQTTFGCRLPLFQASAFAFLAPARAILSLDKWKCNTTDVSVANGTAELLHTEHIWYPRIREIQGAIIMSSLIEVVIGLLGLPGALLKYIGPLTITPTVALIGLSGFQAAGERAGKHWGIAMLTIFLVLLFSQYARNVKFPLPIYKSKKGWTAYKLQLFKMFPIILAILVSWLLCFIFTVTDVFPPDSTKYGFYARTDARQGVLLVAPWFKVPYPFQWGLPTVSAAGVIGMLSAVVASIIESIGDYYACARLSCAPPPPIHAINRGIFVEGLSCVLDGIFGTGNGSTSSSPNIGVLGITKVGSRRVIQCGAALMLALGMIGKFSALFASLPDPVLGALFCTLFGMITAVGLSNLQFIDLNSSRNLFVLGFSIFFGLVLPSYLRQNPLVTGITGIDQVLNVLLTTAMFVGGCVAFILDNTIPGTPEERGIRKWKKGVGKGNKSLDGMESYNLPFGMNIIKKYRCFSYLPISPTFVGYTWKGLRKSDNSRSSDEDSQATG
UniProt Q5SVS4: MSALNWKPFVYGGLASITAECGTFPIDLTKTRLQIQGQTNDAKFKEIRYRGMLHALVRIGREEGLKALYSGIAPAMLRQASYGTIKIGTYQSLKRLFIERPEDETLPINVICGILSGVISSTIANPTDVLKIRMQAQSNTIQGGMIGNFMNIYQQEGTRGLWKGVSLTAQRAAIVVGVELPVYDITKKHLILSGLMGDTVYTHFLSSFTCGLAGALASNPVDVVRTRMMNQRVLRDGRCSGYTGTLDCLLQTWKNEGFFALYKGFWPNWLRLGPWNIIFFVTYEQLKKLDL
UniProt A1A5C7: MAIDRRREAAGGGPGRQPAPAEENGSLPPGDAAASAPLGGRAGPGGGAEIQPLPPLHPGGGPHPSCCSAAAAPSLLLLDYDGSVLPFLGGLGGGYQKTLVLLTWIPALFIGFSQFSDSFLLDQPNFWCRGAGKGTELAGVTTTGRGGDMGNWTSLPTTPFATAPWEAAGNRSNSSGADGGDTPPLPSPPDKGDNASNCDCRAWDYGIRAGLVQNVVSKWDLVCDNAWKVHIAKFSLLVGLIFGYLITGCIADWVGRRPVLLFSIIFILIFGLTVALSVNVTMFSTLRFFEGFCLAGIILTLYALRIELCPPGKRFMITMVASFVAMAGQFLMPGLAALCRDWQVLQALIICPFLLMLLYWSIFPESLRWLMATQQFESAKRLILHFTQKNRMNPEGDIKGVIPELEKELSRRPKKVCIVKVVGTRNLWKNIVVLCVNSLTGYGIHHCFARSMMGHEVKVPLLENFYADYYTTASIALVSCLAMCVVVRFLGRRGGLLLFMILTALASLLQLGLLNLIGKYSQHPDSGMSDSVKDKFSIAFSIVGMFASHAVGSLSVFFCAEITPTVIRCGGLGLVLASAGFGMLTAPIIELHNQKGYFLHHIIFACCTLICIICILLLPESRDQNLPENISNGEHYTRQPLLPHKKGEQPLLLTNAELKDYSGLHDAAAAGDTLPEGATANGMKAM
UniProt Q9NRA2: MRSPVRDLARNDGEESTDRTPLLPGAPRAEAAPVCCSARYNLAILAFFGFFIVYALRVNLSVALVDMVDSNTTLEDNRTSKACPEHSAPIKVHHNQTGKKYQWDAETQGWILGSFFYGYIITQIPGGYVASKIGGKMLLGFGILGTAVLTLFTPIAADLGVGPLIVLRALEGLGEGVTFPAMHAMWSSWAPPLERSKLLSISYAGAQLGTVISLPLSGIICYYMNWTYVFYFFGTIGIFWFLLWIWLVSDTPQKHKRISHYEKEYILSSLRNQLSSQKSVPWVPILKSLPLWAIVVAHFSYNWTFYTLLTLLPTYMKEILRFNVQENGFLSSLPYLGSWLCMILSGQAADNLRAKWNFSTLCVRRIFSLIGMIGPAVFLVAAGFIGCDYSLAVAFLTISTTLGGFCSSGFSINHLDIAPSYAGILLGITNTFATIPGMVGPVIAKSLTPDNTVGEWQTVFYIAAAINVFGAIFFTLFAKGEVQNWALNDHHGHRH
UniProt Q3KQZ1: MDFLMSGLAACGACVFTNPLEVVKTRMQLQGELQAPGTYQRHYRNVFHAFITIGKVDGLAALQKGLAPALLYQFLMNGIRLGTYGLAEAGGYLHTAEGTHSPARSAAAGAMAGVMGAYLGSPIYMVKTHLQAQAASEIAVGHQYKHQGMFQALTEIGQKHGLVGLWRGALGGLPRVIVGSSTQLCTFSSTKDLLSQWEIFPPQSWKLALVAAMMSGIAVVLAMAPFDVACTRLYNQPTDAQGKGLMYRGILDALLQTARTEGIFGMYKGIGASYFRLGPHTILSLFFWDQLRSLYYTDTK
UniProt Q7Z2H8: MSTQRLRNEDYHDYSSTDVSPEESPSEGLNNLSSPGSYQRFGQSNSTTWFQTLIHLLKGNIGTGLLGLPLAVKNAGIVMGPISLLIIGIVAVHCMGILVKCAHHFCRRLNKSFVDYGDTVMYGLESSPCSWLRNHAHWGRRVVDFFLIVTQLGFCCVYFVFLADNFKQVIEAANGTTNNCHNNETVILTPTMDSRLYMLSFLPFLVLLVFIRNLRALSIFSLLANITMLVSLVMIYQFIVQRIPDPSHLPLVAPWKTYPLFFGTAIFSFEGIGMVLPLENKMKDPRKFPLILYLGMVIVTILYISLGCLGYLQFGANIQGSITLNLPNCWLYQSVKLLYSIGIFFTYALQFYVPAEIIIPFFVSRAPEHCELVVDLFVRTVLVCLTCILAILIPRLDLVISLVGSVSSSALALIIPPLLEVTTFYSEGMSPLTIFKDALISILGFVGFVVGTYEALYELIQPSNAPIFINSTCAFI
UniProt Q96A46: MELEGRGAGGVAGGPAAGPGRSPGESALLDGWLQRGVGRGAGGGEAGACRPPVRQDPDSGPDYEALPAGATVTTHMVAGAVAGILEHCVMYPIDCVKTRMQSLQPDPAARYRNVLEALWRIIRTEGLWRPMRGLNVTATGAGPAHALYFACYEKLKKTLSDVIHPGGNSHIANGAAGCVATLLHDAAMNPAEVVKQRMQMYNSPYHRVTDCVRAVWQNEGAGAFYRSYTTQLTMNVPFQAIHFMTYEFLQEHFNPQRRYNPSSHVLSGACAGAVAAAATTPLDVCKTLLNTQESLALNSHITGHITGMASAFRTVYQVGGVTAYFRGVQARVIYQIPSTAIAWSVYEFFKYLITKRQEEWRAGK
UniProt Q8N755: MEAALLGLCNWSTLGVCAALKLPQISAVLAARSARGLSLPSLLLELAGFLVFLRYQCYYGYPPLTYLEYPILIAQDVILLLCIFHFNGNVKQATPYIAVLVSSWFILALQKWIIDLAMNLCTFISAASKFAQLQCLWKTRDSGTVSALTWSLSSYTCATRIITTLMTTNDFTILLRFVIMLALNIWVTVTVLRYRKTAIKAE
UniProt Q6ZP29: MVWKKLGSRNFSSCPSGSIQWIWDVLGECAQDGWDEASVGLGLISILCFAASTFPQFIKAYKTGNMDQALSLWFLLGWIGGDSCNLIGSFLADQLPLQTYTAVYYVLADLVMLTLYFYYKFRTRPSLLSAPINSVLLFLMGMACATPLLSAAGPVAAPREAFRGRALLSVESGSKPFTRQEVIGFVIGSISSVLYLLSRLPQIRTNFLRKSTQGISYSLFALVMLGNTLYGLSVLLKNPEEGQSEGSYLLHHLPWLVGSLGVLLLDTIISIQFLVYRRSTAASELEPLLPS
UniProt Q9Y2P4: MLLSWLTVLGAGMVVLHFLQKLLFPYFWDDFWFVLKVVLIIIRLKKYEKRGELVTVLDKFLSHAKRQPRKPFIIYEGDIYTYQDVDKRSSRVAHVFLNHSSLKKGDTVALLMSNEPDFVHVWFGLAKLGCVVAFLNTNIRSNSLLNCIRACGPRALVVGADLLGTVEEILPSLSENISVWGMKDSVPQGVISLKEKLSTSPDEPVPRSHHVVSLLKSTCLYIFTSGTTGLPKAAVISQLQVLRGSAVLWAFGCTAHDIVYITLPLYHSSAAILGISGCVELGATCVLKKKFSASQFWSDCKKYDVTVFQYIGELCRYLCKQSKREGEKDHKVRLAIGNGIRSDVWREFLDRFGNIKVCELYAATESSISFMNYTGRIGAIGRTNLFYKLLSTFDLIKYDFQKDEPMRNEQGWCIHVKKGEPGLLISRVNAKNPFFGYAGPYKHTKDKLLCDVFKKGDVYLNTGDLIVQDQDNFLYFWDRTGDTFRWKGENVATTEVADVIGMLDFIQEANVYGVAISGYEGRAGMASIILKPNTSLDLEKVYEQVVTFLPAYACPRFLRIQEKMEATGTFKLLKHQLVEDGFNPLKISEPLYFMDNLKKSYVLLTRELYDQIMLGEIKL
UniProt P14672: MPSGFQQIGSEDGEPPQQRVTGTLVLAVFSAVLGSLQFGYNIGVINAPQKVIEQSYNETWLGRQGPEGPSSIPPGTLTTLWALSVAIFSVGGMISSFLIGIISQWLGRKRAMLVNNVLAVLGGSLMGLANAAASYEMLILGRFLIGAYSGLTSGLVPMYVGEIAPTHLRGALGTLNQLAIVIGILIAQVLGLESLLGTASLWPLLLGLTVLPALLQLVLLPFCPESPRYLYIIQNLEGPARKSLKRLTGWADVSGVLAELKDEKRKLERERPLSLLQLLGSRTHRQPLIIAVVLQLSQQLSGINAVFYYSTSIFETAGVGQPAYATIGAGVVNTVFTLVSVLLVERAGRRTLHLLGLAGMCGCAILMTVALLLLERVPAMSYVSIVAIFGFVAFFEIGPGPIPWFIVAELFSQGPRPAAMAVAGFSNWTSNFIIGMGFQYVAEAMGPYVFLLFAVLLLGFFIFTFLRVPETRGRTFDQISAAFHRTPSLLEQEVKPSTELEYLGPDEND
UniProt Q9BRY0: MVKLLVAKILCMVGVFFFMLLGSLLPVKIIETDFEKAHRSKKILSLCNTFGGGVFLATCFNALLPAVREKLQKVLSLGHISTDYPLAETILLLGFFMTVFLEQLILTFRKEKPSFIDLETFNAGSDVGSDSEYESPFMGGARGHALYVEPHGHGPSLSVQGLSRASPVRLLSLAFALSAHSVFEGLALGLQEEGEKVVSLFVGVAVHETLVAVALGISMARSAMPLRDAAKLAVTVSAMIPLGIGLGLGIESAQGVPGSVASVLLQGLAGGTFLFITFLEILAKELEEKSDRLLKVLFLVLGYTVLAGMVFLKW
UniProt P48751: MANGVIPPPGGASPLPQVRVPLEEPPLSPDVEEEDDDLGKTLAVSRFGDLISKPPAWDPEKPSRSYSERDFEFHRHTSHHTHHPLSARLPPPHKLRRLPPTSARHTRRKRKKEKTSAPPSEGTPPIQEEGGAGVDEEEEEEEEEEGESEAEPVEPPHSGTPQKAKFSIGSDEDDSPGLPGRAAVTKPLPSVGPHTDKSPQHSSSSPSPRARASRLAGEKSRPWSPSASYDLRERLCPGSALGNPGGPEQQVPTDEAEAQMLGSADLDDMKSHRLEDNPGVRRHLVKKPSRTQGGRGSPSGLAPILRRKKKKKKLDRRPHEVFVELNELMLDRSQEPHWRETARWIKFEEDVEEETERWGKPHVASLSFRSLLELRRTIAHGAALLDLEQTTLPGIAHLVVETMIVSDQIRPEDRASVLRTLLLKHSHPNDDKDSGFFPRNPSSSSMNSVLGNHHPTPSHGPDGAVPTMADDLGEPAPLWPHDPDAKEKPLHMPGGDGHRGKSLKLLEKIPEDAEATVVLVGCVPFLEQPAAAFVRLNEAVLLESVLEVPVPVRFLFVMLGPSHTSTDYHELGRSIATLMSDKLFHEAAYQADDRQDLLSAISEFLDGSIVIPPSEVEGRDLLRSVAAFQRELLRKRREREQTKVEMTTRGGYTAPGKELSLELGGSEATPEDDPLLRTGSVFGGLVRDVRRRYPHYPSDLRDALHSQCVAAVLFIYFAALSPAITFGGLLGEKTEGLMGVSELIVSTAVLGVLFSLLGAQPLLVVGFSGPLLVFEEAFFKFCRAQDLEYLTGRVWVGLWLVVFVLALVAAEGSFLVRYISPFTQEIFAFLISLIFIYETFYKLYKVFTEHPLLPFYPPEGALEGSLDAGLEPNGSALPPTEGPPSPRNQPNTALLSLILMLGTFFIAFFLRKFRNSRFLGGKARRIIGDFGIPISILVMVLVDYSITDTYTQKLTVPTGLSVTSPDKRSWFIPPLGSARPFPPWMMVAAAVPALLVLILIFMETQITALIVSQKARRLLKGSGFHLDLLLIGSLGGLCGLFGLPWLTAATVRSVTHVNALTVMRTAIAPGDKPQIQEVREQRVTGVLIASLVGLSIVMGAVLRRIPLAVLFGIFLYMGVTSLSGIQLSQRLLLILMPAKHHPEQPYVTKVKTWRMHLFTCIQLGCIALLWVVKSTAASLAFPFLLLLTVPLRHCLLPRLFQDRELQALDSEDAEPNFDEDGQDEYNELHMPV

The targets below were run with CC(C)N(C[C@H]1O[C@@H](n2cnc3c(N)ncnc32)[C@H](O)[C@@H]1O)[C@H]1C[C@@H](CCc2nc3cc(C(C)(C)C)ccc3[nH]2)C1 [pinometostat] (assay: log2 fold change, soluble protein after heating vs DMSO (PISA); higher = thermal stabilisation; K562 cells, 10 uM, 30 min; active = over 0.2 and 3.5 SD of the protein, either way, in both replicates (recomputed)).
Summary of the method: (§1)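 Soluble protein was defined as the supernatant after 21,000xg for 90 min. It came from K562 cells at 2×10^6 cells/mL given 10 μM compound for 30 min, heated in aliquots for 3 min across 48°C-58°C, pooled, and extracted in PBS with 0.5% NP-40 at 4°C, and was quantified by TMTpro 16plex LC-MS/MS with equalised channel sums. Thermal stability against control samples, from duplicates, is reported as log2 fold change.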

Row | Target | log2 fold change
1 | SLC23A2 (UniProt Q9UGH3) | inactive: 0.035
2 | SLC25A30 (UniProt Q5SVS4) | inactive: -0.067
3 | SLC22A23 (UniProt A1A5C7) | inactive: 0.032
4 | SLC17A5 (UniProt Q9NRA2) | inactive: -0.057
5 | SLC25A29 (UniProt Q8N8R3) | inactive: 0.029
6 | SLC26A2 (UniProt P50443) | inactive: 0.139
7 | SLC19A2 (UniProt O60779) | inactive: -0.002
8 | SLC25A35 (UniProt Q3KQZ1) | inactive: -0.02
9 | SLC41A1 (UniProt Q8IVJ1) | inactive: -0.031
10 | SLC36A1 (UniProt Q7Z2H8) | inactive: -0.1
11 | SLC35F5 (UniProt Q8WV83) | inactive: -0.153

What follows are targets tested with CC1=C(C(CC(=O)N1)C2=CC=C(C=C2)C(F)(F)F)C(=O)NC3=C(C=C4C(=C3)C=NN4)F in the same assay as above.
Summary of the method: as §1

Row | Target | log2 fold change
12 | SLC25A28 (UniProt Q96A46) | inactive: -0.084
13 | SLC66A3 (UniProt Q8N755) | inactive: 0.118
14 | SLC52A2 (UniProt Q9HAB3) | inactive: -0.016
15 | SLC23A2 (UniProt Q9UGH3) | inactive: -0.113
16 | SLC25A30 (UniProt Q5SVS4) | inactive: 0.13
17 | SLC66A1 (UniProt Q6ZP29) | inactive: -0.073
18 | SLC10A7 isoform 1 (UniProt Q0GE19) | inactive: 0.177
19 | SLC35E3 (UniProt Q7Z769) | inactive: -0.012
20 | SLC66A2 (UniProt Q8N2U9) | inactive: -0.092
21 | SLC27A6 (UniProt Q9Y2P4) | inactive: 0.001
22 | SLC39A8 (UniProt Q9C0K1) | inactive: 0.104
23 | SLC2A4 (UniProt P14672) | inactive: -0.15
24 | SLC39A3 (UniProt Q9BRY0) | inactive: 0.008
25 | SLC26A2 (UniProt P50443) | inactive: 0.142
26 | SLC10A3 (UniProt P09131) | inactive: 0.186
27 | SLC19A2 (UniProt O60779) | inactive: 0.259
28 | SLC41A1 (UniProt Q8IVJ1) | inactive: -0.039
29 | SLC3A2 (UniProt F5H867) | inactive: -0.026
30 | SLC4A3 isoform 3 (UniProt P48751) | inactive: 0.085
31 | SLC35F5 (UniProt Q8WV83) | inactive: 0.224
